# Experimental data as given in PMC4450067 (PLoS Pathogens, 2015).
# Chains of the proteins cited; added tags and fusions are not shown.
# UniProt A0A9J7JVX0: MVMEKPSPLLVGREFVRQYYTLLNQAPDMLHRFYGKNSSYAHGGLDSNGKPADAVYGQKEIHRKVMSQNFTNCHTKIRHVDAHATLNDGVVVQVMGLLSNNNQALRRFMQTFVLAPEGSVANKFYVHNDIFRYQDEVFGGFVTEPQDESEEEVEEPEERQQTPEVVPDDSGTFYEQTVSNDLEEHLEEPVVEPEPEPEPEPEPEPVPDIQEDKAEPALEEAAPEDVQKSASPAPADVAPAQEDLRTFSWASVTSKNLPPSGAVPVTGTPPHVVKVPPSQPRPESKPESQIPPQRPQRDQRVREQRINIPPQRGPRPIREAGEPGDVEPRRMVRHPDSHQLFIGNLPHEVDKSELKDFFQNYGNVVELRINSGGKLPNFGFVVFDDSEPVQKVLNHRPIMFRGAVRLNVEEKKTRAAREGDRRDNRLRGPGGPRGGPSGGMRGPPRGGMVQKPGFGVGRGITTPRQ
# Results are given in words; binding and its absence hold for the method and conditions named. In cells and extracts the contact can be indirect.
# Tests used:
# Experiment in all cases: co-IP
# [1] = target: G3BP-1 (Ras-GAP SH3 domain-binding protein 1), endogenous in BHK cells (hamster (endogenous in BHK))
# [2] = target: EGFP-USP10(1-40)-F13A (human) (UniProt Q14694)
# [3] = target: EGFP-USP10(1-40)-G11A (human) (UniProt Q14694)
# [4] = target: EGFP-USP10(1-40)-F10A (human) (UniProt Q14694)
binding [1],binding [2],binding [3],binding [4],Substance
no binding,–,–,–,EGFP-USP10(1-40)-F10A (from UniProt Q14694-1 1-40) (domain or fragment)
no binding,–,–,–,EGFP-USP10(1-40)-F13A (from UniProt Q14694-1 1-40) (domain or fragment)
no binding,–,–,–,EGFP-USP10(1-40)-G11A (from UniProt Q14694-1 1-40) (domain or fragment)
–,no binding,no binding,no binding,"G3BP-1 (Ras-GAP SH3 domain-binding protein 1), endogenous in BHK cells (from UniProt A0A9J7JVX0 1-465)"
